In patent publication US20150118311A1, “Highly Penetrative Nanocarriers for Treatment of CNS Disease” (priority 2012, published 2015):

Test system: GS5 cells
Test: GS5 cell proliferation/viability (MTT, AlamarBlue)
Format: cell-based
Details: Homo sapiens, 72 h, three days after treatment, read-out: IC50 of candidate drugs on GS5 cells

Compound `COc1ccc(CCN2CCC(Nc3nc4ccccc4n3Cc3ccc(F)cc3)CC2)cc1` [Astemizole] has an IC50 of 3.2 µM.
